Results are given in words; binding and its absence hold for the method and conditions named. Binding calls can cover weak binding; strength is not graded here.
Target: GST-vWbp-N (N-terminal half of vWbp) (S. aureus strain Newman)
Test: ELISA; competition: Fg coated (5 μg/ml); GST-vWbp-N (6 nM), GST-Coa-N (400 nM) or SdrG (50 nM) mixed with increasing concentrations of Fg β-chain (1-25) peptide or scrambled peptide; detected with HRP anti-GST or anti-His; both purified

B1: Fg β-chain peptide (1-25) (peptide)
peptide: QGVNDNEEGFFSARGHRPLDKKREE
Which binding does the source give for B1 here?
The binding was “binds”.
